Measured values from paper PMC7950214.

The chains behind the UniProt entries cited, without tags or fusion partners.
UniProt Q94AH6: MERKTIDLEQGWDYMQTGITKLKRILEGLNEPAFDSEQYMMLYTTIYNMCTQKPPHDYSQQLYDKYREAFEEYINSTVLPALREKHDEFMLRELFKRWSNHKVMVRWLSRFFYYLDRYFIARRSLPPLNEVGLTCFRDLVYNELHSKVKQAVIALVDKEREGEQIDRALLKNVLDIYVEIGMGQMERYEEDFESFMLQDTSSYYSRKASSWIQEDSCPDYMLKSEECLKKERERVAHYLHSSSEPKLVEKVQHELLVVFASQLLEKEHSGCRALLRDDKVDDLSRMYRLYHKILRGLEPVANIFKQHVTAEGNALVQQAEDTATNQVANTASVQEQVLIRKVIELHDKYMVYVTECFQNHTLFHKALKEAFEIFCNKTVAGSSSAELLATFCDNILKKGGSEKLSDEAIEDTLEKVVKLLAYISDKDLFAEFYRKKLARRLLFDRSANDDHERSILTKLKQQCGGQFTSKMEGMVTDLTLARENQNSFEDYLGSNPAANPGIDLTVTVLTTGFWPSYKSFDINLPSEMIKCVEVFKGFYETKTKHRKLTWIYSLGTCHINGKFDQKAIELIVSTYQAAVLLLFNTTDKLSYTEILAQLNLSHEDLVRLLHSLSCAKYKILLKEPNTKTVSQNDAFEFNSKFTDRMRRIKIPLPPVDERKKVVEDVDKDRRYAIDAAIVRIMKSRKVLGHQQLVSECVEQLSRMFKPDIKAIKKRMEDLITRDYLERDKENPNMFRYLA
UniProt Q39255: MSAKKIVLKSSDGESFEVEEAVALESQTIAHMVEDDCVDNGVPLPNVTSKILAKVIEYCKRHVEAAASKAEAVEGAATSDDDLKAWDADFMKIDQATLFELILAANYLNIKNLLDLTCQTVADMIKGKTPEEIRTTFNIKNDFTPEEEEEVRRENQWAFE
UniProt Q8LAZ7: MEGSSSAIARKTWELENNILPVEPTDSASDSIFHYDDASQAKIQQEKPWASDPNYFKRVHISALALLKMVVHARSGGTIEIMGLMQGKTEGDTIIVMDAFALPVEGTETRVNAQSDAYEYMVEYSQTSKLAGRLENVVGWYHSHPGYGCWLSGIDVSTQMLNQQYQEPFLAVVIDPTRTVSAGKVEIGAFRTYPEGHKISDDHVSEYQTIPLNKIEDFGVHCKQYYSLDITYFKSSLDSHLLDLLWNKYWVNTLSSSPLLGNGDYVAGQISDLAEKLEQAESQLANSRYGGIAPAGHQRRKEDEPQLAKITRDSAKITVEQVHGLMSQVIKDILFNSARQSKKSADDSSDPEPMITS

T1: GS-MAX2 (MORE AXILLARY GROWTH 2, N-terminal GS tag) (Arabidopsis thaliana) (UniProt Q9SIM9)
T1 sequence: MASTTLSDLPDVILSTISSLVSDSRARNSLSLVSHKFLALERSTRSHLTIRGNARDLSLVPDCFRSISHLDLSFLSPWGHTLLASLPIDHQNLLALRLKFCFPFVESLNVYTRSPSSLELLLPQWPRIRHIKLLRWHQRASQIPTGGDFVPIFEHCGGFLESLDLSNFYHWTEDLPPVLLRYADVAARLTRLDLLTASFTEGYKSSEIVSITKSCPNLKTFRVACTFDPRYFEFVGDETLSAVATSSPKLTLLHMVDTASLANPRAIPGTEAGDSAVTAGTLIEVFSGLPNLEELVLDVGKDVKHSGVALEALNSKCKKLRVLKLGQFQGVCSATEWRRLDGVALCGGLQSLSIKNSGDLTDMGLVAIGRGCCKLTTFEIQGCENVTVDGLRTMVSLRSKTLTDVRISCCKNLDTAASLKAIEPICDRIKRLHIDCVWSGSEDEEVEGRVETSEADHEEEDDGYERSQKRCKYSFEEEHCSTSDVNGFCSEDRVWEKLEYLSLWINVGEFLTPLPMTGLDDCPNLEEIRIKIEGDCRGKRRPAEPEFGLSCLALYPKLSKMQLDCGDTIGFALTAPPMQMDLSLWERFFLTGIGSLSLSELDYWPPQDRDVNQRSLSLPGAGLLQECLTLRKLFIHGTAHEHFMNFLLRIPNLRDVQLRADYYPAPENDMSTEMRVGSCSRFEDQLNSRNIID

T2: GS-MAX2ΔFBOX (MAX2 without its first 53 amino acids, N-terminal GS tag) (Arabidopsis thaliana) (UniProt Q9SIM9)
T2 sequence: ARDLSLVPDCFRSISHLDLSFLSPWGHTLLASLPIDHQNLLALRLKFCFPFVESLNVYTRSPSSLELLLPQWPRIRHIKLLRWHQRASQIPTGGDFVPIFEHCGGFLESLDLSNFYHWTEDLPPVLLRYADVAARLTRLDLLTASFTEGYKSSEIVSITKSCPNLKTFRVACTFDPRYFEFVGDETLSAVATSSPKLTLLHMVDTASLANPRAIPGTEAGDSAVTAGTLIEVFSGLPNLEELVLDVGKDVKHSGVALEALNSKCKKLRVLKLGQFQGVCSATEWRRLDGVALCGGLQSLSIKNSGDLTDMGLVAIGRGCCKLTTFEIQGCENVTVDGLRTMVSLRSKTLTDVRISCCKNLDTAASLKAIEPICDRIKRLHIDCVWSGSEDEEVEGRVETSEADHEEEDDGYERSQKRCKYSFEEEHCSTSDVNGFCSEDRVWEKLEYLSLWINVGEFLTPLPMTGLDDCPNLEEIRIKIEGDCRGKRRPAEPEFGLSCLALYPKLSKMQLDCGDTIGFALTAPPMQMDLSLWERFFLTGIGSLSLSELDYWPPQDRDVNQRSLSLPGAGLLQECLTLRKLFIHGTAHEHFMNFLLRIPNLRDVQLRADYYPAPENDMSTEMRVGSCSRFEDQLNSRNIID


Columns and labels:
[1] = target: T1, GS-MAX2 (MORE AXILLARY GROWTH 2, N-terminal GS tag) (Arabidopsis thaliana); test: affinity purification with mass spectrometry; tandem affinity purification (IgG-Sepharose, AcTEV, streptavidin beads) of the N-terminally GS-tagged bait from Arabidopsis PSB-D cell culture extracts; cells treated 5 h with 0.01% acetone (mock) or 1 μM rac-GR24; two replicates each; LC-MS/MS; background proteins filtered out
[2] = target: T2, GS-MAX2ΔFBOX (MAX2 without its first 53 amino acids, N-terminal GS tag) (Arabidopsis thaliana); test: as above

binding [1] | binding [2] | Molecule
binds | no binding | CUL1 (from UniProt Q94AH6 1-738)
binds | no binding | SKP1 (from UniProt Q39255 1-160)
no binding | – | KARRIKIN … 2 (KAI2), endogenous (receptor, UniProt Q9SZU7 1-270) MGVVEEAHNVKVIGSGEATIVLGHGFGTDQSVWKHLVPHLVDDYRVVLYDNMGAGTTNPDYFDFDRYSNLEGYSFDLIAILEDLKIESCIFVGHSVSAMIGVLASLNRPDLFSKIVMISASPRYVNDVDYQGGFEQEDLNQLFEAIRSNYKAWCLGFAPLAVGGDMDSIAVQEFSRTLFNMRPDIALSVGQTIFQSDMRQILPFVTVPCHILQSVKDLAVPVVVSEYLHANLGCESVVEVIPSDGHLPQLSSPDSVIPVILRHIRNDIAM
binds | no binding | FUS12 (protein, UniProt Q8W207 1-439) MASDADMEDYGFEYSDEEQEEQDVDIENQYYNSKGMVETEPEEALSGFAEVVQMEPEKADWGFKALKQTVKIYYRLGKYKEMMEAYTEMLTYIKSAVTRNYSEKCINNIMDFVSGSASQNTGLLQEFYQTTLKALEEAKNERLWFKTNLKLCNIWFDIGEYRRMTKILKELHKSCQKEDGTDDQKKGSQLLEVYAIEIQIYTETKDNKKLKQLYHKALAIKSAIPHPRIMGIIRECGGKMHMAERQWEEAATDFFEAFKNYDEAGNQRRIQCLKYLVLANMLMESEVNPFDGQEAKPYKNDPEILAMTNLIAAYQRNEIIEFERILKSNRRTIMDDPFIRNYMEDLLKKVRTQVLLKLIKPYTKIGIPFISKELNVPETDVTELLVSLILDSRIDGHIDEMNRYLLRGDSGNGRKLHKAVDKWNSQLKSLSSNITSRVC
no binding | binds | PFD2 (protein, UniProt Q9LJ98 1-148) MASKSGSGGLREPPNEQAVLNMYEGKRSELSQIYSNITDLEMQVSEHSLVINAIQPLDQSRKCFRMIGGVLVERTIKEVLPAVQRNKDGLEEVVRKLYETLEKKKKDLTEFEAKYKIRITKQEDNKEGGNKKEGNAQGVLVGAASSSQ
no binding | binds | PFD3 (protein, UniProt P57741 1-195) MSSSSPSGSGSDLTERRGIPAAKFIQDVETYLSQSGLDPNSALAFHQERLQQYKVVEMKLLAQQRDLQAKIPDIEKCLEVVATLEAKKGTGEALLADFEVSEGIYSRACIEDTDSVCLWLGANVMLEYSCEEASALLKNNLENAKASLEVLVADLQFLRDQVTVTQVTIARVYNWDVHQRRVKQVTPTAIAVADS

The remaining lines, values behind:

Molecule | binding [1] | binding [2]
CSN5A (from UniProt Q8LAZ7 1-357) | binds | no binding
COP13 (protein, UniProt Q8W575 1-429) MIGAVNSVEAVITSIQGLSGSPEDLSALHDLLRGAQDSLRAEPGVNFSTLDQLDASKHSLGYLYFLEVLTCGPVSKEKAAYEIPIIARFINSCDAGQIRLASYKFVSLCKILKDHVIALGDPLRGVGPLLNAVQKLQVSSKRLTALHPDVLQLCLQAKSYKSGFSILSDDIVEIDQPRDFFLYSYYGGMICIGLKRFQKALELLYNVVTAPMHQVNAIALEAYKKYILVSLIHNGQFTNTLPKCASTAAQRSFKNYTGPYIELGNCYNDGKIGELEALVVARNAEFEEDKNLGLVKQAVSSLYKRNILRLTQKYLTLSLQDIANMVQLGNAKEAEMHVLQMIQDGQIHALINQKDGMVRFLEDPEQYKSSEMIEIMDSVIQRTIGLSKNLLAMDESLSCDPLYLGKVGRERQRYDFGDDFDTVPQKFSM | binds | no binding
ATSGT1B (protein, UniProt Q9SUT5 1-358) MAKELAEKAKEAFLDDDFDVAVDLYSKAIDLDPNCAAFFADRAQANIKIDNFTEAVVDANKAIELEPTLAKAYLRKGTACMKLEEYSTAKAALEKGASVAPNEPKFKKMIDECDLRIAEEEKDLVQPMPPSLPSSSTTPLATEADAPPVPIPAAPAKPMFRHEFYQKPEEAVVTIFAKKVPKENVTVEFGEQILSVVIDVAGEEAYHLQPRLFGKIIPEKCRFEVLSTKVEIRLAKAEIITWASLEYGKGQSVLPKPNVSSALSQRPVYPSSKPAKDWDKLEAEVKKQEKDEKLDGDAAMNKFFSDIYSSADEDMRRAMNKSFAESNGTVLSTNWKEVGTKKVESTPPDGMELKKWEY | no binding | binds
COP8 (protein, UniProt Q8L5U0 1-397) MDEALTNASAIGDQRQKIEQYKLILSSVLSSNDLLQAQRFIDHILSDDVPLVVSRQLLQSFAQELGRLEPETQKEIAQFTLTQIQPRVVSFEEQALVIREKLAGLYESEQEWSKAAQMLSGIDLDSGMRAVDDNFKLSKCIQIARLYLEDDDAVNAEAFINKASFLVSNSQNEVLNLQYKVCYARILDMKRKFLEAALRYYGISQIEQRQIGDEEIDENALEQALSAAVTCTILAGAGPQRSRVLATLYKDERCSKLKIYPILQKVYLERILRRPEIDAFSEELRPHQKASLPDKSTVLDRAMIEHNLLSASKLYTNIRFDELGTLLAIDPRKAEKIAANMIGQDRMRGSIDQEEAVIHFEDDVEELQQWDQQISGLCQALNDILDGMAKKGMSVPV | binds | no binding
CSN6A (protein, UniProt Q8W206 1-317) MAPSSSSGLTFKLHPLVIVNISDHYTRVKTQLNPPASICASGHGSNNGEAMFQQNPRVYGCVIGVQRGRTVEIFNSFELLYDPSTQTLDRSFLEKKQELYKKVFPDFYILGWYSTGSDAEESDMHIHKALMDINESPVYVLLNPAINHTQKDLPVTIYESELHVIDGIPQLIFAHTSYTIETVEAERISVDHVAHLKPSDGGSAATQLAAHLTGIHSAIKMLNSRIRVLYQNLAAMQKGDKSCDNSVLRQVSSLLRRLPAMESERFQDNFLMEYNDKLLITYLAMITNCSSNMNEMVDKFNTAYDRNTRRGGRTAFM | binds | no binding
CSN1 (protein, UniProt P45432 1-441) MERDEEASGPMMEMCTNGGEETSNRRPIISGEPLDIEAYAALYKGRTKIMRLLFIANHCGGNHALQFDALRMAYDEIKKGENTQLFREVVNKIGNRLGEKYGMDLAWCEAVDRRAEQKKVKLENELSSYRTNLIKESIRMGYNDFGDFYYACGMLGDAFKNYIRTRDYCTTTKHIIHMCMNAILVSIEMGQFTHVTSYVNKAEQNPETLEPMVNAKLRCASGLAHLELKKYKLAARKFLDVNPELGNSYNEVIAPQDIATYGGLCALASFDRSELKQKVIDNINFRNFLELVPDVRELINDFYSSRYASCLEYLASLKSNLLLDIHLHDHVDTLYDQIRKKALIQYTLPFVSVDLSRMADAFKTSVSGLEKELEALITDNQIQARIDSHNKILYARHADQRNATFQKVLQMGNEFDRDVRAMLLRANLLKHEYHARSARKL | binds | no binding
ASK13 (protein, UniProt Q9M1X5 1-154) MSKMVMLLSSDGESFQVEEAVAVQSQTIAHMIEDDCVANGVPIANVTGVILSKVIEYCKKHVVSDSPTEESKDELKKWDAEFMKALEQSSTLFDVMLAANYLNIKDLLDLGCQTVADMITGKKPDEIRALLGIENDFTPEEEEEIRKENQWAFE | binds | no binding
ASK4 (protein, UniProt Q9LNT9 1-163) MAETKKMIILKSSDGESFEIEEAVAVKSQTIKHMIEDDCADNGIPLPNVTGAILAKVIEYCKKHVEAAAEAGGDKDFYGSAENDELKNWDSEFVKVDQPTLFDLILAANYLNIGGLLDLTCKAVADQMRGKTPEQMRAHFNIKNDYTPEEEAEVRNENKWAFE | binds | no binding

Results are given in words; binding and its absence hold for the method and conditions named. In cells and extracts the contact can be indirect. Here binding means that the protein was enriched with, or labelled near, the bait; the list need not be complete. A no says only that the protein was not detected with the bait. Sequences can lack the tags named with a protein.
